# Assay results reported in PubChem BioAssay AID493014 (National Center for Advancing Translational Sciences (NCATS), 2011).
# Hit rate of the full screen: of about 340,000 compounds, about 170 (0.05%) were called active. This list was built around the results that the source calls inconclusive (neither active nor inactive); the mix of calls is not that of the screen. Calls follow the shape of the dose curve; as a rule, active = well fitted inhibition curve with a large enough effect in the signal ratio, with a control signal flat (not every such curve was filed as active); inconclusive = small, poorly fitted or top-dose-only effect, or effect the other way, or a change in a side signal; inactive = flat fitted curve, though single readings scatter; the % refers to the signal ratio. Potencies beside an inconclusive call are fits to weak or partial responses and may not hold up.
# Experiment: qHTS Assay to Find Inhibitors of Chronic Active B-Cell Receptor Signaling;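 as to activity change, negative = inhibition: plate controls were basal doxycycline-induced cells for no effect and cells given 10 µM MG132 for full effect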
# Details: ABC-DLBCL IkBa-CBG/CBR reporter, luminescence ratio (green luciferase fused to IkBa over red control in TMD8 lymphoma cells), 4 h; activity change, negative = inhibition: at 46.1 µM (top of the series)
# In short: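 Concentration-response series (up to 46 uM) were applied to TMD8 dual-reporter cells for 4 h at 37C with doxycycline. Green/red ratio, after filter-overlap correction, defined %Activity; red signal alone was normalised to basal cells and zero luminescence.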
# Potency is read from the fitted curve at half-maximal effect.
SMILES,"activity change, negative = inhibition",Potency
Cc1noc(C)c1/C=N/Nc1ccccn1,inactive: 8.8%,
Nc1c(C(=O)N2CCCCC2)sc(=S)n1-c1ccccc1,inconclusive: -19.4%,
CCN(CC)c1ccc(-c2nn3c(-c4n[nH]c5c4CCC5)nnc3s2)cc1,,"inconclusive: 7.94 µM [falling, partial curve]"
COc1ccc(C(=O)CSc2nccn2C)cc1,,"inconclusive: 35.5 µM [falling, single point]"
C=CCOc1ccc(C(=O)c2ccccc2)c(OCC(=O)NC2(C#N)CCCC2)c1,inconclusive: 1.15%,
CC(Sc1ccc2ccccc2n1)C(=O)O (stereo unspecified),inconclusive: 7.04%,
Cc1cc(C(=O)COc2cc(F)ccc2[N+](=O)[O-])c(C)n1CC1CCCO1 (stereo unspecified),,"inconclusive: 32.6 µM [falling, partial curve, poor fit]"
CCC1(c2ccccc2)NC(=S)N(c2ccc(C)cc2)N1 (stereo unspecified),inconclusive: 18.3%,
CC(=O)c1ccc(NC(=O)c2ccc(NC(=O)c3ccco3)cc2)cc1,inactive: 6.89%,
CCC(Sc1nc(C)cc(C)n1)C(=O)Nc1cc(C)on1 (stereo unspecified),inconclusive: -2.59%,
CCOCCCNC(=O)/C(C#N)=C/c1ccc([N+](=O)[O-])o1,inconclusive: -6.81%,
O=[N+]([O-])c1ccc(O)c(N=Cc2sc3ccccc3c2O)c1,,"inconclusive: 20.6 µM [falling, partial curve]"
COc1cc(NC(c2ccccc2)c2ccccc2)cc(OC)c1OC,inactive: -0.693%,
Nc1nc(SCC(=O)c2ccc(Oc3ccccc3)cc2)n[nH]1,inconclusive: 6.86%,
COc1ccccc1N/C=C/c1onc(C)c1[N+](=O)[O-],inactive: -10.3%,
O=C(c1ccc(-c2ccccc2)cc1)N1CCN(Cc2ccccn2)CC1,inconclusive: -10.7%,
Cc1ccc(N(CC(=O)NCc2ccco2)C(=O)CCC(=O)Nc2ccccn2)cc1C,inconclusive: -2.66%,
O=C(NCC1CCCO1)c1cc2c(=O)[nH]c3ccccc3c2s1 (stereo unspecified),,"inconclusive: 12.6 µM [falling, partial curve, poor fit]"
COc1ccc(-c2cn3ccccc3n2)cc1,,"inconclusive: 22.4 µM [falling, single point]"
CCOC(=O)C(CC)/C(C)=N\NC(=O)c1cccc(C)c1 (stereo unspecified),,"inconclusive: 22.4 µM [falling, partial curve]"
COc1cc(Cl)ccc1OCc1cc(C(=O)N(C)Cc2nnc(C)o2)no1,inconclusive: -21%,

SMILES,"activity change, negative = inhibition",Potency
CC1CC(C)(C)NC(=S)O1 (stereo unspecified),inconclusive: 0.384%,
O=CN1CCN(C(=O)Cc2ccc([N+](=O)[O-])cc2)CC1,inactive: -2.4%,
Cc1cccc(Nc2nc(N)c([N+](=O)[O-])c(NCc3ccco3)n2)c1,inconclusive: -17.5%,
CCc1cccc(C)c1NC(=S)NCc1ccccc1,inconclusive: -2.09%,
CCN(CCCNS(=O)(=O)c1ccc2c(c1)oc(=O)n2C)c1cccc(C)c1,inconclusive: -10.4%,
Cc1ccc(N/N=C2\CS(=O)(=O)N(C)c3ccsc32)cc1,inconclusive: 6.22%,
COc1cc(C#Cc2c(-c3cncn3C)n(C)c3ccc(-c4ccc5[nH]ccc5c4)cc23)cc(OC)c1,inconclusive: 10.8%,
Nc1c(-c2ccccc2)sc2ccc3ccccc3[n+]12,inconclusive: 0.621%,
CC(NC(=S)NC1CCCCC1)c1ccc(C(C)(C)C)cc1 (stereo unspecified),inactive: 2.72%,
O=C(OCC(=O)N1CCCCCC1)c1ccc[nH]c1=O,inconclusive: 4.11%,
COc1ccc(N(Cc2cc3ccccc3[nH]c2=O)S(=O)(=O)c2ccccc2)cc1,,"inconclusive: 35.5 µM [falling, single point]"
CC(C)(C)[C@@H]1CCC(=O)N(CC[C@H](Sc2ccccc2)c2ccccc2)CC1,,"inconclusive: 8.91 µM [activator, partial curve, poor fit]"
COc1ccc(CNCCCSc2ncccn2)cc1OC,inactive: -0.332%,
C=C(Cl)COc1ccc2c(CCCC)cc(=O)oc2c1,inactive: 14.4%,
COc1ccc(NC(=O)c2ccccc2Sc2ccc(NC(C)=O)nc2)cc1,,"inconclusive: 12.6 µM [falling, partial curve]"
Clc1ccc(-c2nc3cc(CN4CCCCC4)ccc3o2)cc1,inactive: 6%,
CCCCNCCCOc1cc(Cl)ccc1Cl,inactive: -0.924%,
N#C/C(=C\c1cccnc1)C(=O)Nc1ccc(C(=O)O)cc1,,"inconclusive: 31.6 µM [rising, single point]"
CC1=C(C#N)C(=O)NC(C)(C)C1,inconclusive: 1.69%,
Cc1cc(/C=N/Nc2nc(N)ncc2[N+](=O)[O-])c(C)n1-c1ccccc1F,inactive: -24.2%,
